Experimental data taken from ChEMBL document CHEMBL4219073, “Development of selective inhibitors for the treatment of rheumatoid arthritis: (R)-3-(3-(Methyl(7H-pyrrolo[2,3-d]pyrimidin-4-yl)amino)pyrrolidin-1-yl)-3-oxopropanenitrile as a JAK1-selective inhibitor” (Bioorg Med Chem, 2018).

Columns and labels:
in vivo [1] = conditions: rat, po, 10 mg/kg
in vivo [2] = conditions: dog, po, 5 mg/kg
in vivo [3] = conditions: rat, po, 10 mg/kg; remark: listed apart in the source
in vivo [4] = conditions: rat, po, 10 mg/kg; remark: listed apart in the source

C[C@@H]1CCN(C(=O)CC#N)C[C@@H]1N(C)c1ncnc2[nH]ccc12 [TOFACITINIB]
Tmax (in vivo [1]): 18.6 min | AUC(0-inf) (in vivo [2]): 2300 ng·h/mL | Cmax (in vivo [3]): 2400 ng/mL | AUC(0-inf) (in vivo [4]): 2800 ng·h/mL
